Reference: the supplement of paper PMC10849652
This is one part of the list. Residues, ends and D or L forms follow the SMILES beside them. *: point of attachment. Cbz = O=C(OCc1ccccc1)*

The chains behind the UniProt entries cited, without tags or fusion partners. Where a name states a change or a piece, a line headed by the entry shows the natural chain unless it says otherwise.
UniProt Q9NQZ2: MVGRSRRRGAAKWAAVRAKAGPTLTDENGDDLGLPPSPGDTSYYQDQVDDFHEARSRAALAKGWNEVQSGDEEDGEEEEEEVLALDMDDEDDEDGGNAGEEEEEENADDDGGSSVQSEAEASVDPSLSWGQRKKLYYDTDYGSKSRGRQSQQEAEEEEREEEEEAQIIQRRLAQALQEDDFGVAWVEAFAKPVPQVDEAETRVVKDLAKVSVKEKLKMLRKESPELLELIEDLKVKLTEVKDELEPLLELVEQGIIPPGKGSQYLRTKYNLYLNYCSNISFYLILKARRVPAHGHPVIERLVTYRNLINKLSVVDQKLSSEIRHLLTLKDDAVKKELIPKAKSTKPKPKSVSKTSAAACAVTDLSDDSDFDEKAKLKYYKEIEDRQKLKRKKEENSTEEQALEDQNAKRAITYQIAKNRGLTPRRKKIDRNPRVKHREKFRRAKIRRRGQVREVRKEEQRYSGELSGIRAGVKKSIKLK
UniProt P22695: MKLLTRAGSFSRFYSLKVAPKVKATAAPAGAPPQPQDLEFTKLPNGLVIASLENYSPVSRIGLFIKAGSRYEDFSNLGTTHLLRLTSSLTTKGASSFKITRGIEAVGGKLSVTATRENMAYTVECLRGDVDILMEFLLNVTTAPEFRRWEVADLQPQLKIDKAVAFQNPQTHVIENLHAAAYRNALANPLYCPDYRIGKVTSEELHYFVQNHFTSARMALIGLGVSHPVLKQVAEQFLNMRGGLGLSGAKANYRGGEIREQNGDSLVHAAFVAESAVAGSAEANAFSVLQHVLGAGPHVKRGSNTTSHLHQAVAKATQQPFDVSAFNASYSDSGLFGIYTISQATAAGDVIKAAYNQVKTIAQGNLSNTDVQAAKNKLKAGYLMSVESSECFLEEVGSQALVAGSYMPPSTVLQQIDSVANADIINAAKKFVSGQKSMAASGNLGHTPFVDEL
UniProt Q04323: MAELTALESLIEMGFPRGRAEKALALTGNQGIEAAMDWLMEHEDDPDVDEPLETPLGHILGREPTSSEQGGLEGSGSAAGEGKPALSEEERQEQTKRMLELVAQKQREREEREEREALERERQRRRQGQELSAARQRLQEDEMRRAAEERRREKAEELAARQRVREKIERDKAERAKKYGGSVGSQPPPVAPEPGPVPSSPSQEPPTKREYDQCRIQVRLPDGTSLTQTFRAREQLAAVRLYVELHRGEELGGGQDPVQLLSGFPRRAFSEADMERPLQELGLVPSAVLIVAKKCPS
UniProt P11441: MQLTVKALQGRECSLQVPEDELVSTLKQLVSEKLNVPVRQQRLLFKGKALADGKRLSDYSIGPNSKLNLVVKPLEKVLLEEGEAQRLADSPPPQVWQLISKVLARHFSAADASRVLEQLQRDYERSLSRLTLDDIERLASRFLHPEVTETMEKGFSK
UniProt Q9NUQ7: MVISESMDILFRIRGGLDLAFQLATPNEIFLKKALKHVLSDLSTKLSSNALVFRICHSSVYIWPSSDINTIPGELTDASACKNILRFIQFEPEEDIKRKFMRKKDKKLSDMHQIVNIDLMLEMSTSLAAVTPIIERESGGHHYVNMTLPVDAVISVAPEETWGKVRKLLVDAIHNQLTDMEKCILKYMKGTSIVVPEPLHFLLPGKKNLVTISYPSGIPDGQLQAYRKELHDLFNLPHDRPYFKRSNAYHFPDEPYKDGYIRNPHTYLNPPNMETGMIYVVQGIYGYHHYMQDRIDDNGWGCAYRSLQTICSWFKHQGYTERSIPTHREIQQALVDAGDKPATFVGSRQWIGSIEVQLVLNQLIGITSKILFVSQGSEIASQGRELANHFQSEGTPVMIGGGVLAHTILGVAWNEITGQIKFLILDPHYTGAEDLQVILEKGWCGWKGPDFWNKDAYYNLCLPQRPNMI
UniProt Q9NWZ5: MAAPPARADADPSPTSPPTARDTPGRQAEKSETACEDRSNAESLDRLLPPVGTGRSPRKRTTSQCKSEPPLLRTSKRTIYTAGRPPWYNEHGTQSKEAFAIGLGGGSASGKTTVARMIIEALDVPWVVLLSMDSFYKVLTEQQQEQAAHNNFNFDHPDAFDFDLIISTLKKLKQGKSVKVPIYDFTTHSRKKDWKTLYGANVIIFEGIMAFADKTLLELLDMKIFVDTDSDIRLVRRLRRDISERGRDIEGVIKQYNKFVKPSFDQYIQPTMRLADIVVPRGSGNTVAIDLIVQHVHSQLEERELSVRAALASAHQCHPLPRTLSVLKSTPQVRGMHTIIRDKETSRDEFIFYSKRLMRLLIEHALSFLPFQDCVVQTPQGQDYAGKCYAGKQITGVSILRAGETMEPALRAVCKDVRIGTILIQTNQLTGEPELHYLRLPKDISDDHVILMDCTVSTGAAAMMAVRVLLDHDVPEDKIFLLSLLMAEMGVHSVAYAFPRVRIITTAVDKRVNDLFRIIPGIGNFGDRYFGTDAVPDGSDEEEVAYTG
UniProt P31930: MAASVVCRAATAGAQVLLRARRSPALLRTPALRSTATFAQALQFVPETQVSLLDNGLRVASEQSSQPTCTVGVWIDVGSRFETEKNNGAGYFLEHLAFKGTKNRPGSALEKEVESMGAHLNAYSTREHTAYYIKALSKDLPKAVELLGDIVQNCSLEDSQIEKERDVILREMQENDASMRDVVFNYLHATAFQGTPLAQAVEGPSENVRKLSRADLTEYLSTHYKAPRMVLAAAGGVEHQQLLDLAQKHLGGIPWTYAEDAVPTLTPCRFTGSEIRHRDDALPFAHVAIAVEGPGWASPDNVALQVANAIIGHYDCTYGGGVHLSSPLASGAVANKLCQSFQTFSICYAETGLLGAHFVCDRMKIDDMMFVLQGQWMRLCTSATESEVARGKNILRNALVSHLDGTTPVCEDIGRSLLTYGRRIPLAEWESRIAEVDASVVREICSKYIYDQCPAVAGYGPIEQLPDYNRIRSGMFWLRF
UniProt P61758, whole entry, looked up: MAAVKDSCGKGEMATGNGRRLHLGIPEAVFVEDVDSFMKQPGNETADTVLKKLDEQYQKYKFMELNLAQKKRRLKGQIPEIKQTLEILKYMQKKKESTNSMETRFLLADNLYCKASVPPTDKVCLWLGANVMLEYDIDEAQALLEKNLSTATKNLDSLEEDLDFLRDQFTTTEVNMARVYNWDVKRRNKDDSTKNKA
UniProt Q53GS9: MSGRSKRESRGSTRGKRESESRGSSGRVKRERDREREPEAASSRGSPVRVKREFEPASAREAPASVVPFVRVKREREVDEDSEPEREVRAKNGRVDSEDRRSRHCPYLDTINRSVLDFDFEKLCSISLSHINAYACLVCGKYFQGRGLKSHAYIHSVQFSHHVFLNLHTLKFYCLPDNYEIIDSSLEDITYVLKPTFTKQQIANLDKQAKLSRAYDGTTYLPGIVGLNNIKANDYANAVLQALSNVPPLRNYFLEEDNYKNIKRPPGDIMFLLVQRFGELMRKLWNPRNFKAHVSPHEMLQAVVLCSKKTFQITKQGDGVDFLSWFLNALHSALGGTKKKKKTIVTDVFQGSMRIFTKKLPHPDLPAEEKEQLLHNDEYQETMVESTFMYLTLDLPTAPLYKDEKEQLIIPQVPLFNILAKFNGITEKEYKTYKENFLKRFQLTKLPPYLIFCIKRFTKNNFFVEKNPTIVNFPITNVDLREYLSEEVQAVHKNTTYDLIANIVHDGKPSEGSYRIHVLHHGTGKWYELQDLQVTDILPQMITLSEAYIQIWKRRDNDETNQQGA
UniProt P40818: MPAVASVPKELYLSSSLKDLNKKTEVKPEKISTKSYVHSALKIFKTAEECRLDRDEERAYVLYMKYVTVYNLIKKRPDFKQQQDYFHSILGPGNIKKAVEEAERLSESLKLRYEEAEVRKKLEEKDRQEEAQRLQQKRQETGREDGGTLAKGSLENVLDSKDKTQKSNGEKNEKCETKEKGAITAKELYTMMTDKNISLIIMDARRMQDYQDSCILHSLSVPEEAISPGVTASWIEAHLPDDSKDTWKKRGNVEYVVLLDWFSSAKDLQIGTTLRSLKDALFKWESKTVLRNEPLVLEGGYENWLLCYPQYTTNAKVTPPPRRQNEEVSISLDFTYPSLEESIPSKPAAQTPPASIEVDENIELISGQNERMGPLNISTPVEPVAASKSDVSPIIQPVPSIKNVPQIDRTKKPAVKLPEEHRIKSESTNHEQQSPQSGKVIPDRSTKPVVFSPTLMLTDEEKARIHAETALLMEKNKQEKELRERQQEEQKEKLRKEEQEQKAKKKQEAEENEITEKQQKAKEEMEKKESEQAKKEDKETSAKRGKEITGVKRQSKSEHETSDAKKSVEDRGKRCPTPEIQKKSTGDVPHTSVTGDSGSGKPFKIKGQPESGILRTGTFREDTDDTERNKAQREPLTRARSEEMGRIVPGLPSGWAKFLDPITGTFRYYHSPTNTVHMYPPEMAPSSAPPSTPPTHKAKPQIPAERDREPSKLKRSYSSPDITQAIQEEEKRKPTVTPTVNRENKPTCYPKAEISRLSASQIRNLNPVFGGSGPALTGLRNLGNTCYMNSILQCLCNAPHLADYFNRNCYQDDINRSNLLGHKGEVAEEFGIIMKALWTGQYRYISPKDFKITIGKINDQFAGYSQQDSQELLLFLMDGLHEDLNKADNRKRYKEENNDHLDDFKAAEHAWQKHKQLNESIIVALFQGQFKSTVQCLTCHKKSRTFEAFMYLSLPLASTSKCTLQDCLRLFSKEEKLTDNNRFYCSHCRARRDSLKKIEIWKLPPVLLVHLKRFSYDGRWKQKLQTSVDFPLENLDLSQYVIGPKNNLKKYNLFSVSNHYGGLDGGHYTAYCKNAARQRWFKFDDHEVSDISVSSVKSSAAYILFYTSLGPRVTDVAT
UniProt P11172: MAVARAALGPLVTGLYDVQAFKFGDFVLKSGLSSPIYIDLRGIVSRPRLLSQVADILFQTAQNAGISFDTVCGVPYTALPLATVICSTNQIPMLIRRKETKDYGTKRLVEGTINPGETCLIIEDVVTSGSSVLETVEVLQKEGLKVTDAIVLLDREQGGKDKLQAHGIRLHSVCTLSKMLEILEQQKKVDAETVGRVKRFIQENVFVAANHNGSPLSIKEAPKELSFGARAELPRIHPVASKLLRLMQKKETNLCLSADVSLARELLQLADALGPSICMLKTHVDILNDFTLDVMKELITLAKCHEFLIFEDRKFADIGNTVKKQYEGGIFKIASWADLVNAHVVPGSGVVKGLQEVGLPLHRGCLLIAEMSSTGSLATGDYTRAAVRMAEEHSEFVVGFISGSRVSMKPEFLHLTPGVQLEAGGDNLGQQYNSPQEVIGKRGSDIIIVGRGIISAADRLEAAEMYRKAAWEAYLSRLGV
UniProt P51809, whole entry, looked up: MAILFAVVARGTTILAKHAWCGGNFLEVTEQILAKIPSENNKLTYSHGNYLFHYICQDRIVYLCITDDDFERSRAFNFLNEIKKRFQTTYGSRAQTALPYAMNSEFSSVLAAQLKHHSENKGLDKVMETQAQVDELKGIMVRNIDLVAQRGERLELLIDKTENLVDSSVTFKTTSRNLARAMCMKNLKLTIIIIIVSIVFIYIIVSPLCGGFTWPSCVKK
UniProt P45974: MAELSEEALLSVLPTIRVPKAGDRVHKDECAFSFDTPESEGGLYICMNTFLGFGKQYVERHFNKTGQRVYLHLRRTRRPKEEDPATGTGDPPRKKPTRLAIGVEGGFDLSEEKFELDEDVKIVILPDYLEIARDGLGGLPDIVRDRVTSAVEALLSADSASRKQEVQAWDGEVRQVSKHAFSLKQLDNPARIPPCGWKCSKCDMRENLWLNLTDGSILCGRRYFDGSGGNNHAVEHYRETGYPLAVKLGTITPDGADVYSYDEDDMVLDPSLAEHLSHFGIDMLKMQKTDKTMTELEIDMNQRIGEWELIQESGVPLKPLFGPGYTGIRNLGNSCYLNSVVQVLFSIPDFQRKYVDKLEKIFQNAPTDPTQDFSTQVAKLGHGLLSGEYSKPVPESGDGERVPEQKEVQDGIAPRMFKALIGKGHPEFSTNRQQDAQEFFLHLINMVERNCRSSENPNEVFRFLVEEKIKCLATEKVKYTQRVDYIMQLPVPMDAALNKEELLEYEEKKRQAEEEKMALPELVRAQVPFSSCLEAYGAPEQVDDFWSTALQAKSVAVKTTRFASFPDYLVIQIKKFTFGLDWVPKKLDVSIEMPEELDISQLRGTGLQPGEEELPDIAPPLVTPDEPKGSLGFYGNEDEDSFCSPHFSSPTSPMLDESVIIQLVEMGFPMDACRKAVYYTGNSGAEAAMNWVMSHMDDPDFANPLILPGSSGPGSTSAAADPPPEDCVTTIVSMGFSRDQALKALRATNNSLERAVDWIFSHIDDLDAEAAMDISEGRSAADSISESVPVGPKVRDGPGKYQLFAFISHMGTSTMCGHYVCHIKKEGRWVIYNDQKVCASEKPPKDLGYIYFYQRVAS

Assays:
Assay in all cases: log2 fold change, soluble protein after heating vs DMSO (PISA); higher = thermal stabilisation; K562 cells, 10 uM, 30 min; active = over 0.2 and 3.5 SD of the protein, either way, in both replicates (recomputed)
[1] = compound: C#Cc1cccc(Nc2ncnc3cc(OCCOC)c(OCCOC)cc23)c1 [erlotinib]
Outline: (§1)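 Soluble protein was quantified by TMTpro 16plex LC-MS/MS after channel sums were equalised. It was obtained as the supernatant after 21,000xg for 90 min from pooled aliquots of K562 cells (2×10^6 cells/mL, 10 μM compound, 30 min) heated for 3 min across 48°C-58°C and extracted in PBS with 0.5% NP-40 at 4°C. Thermal stability values are relative to control samples and come from duplicates. They are given as log2 fold changes.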

[2] = compound: C/C(=N\NC(=O)C1=CC(=CC=C1)S(=O)(=O)N2CCOCC2)/C3=C(C=CC(=C3)Cl)O
Outline: as §1

[3] = compound: C1=CC(=C(C=C1Cl)C2=NC3=NC=CN=C3C(=N2)NC4=CC=NC=C4)F
Outline: as §1

[4] = compound: C1=CC(=CC=C1C2=NC3=C(N2)C=C(C=C3)C(=O)N)OC4=CC=C(C=C4)Cl
Outline: as §1

[5] = compound: C1=CC2=C(C=CC(=C2)/C=C\3/C(=O)NC(=NCC4=CC=CS4)S3)N=C1
Outline: as §1

[6] = compound: C1=CC2=NC=CN=C2C=C1/C=C/3\C(=O)NC(=O)S3
Outline: as §1

[7] = compound: C1=CC=C(C=C1)C2=NC(=C(N2)C3=CC=NC=C3)C4=CC(=C(C=C4)Cl)O
Outline: as §1

[8] = compound: C1=CC=C2C(=C1)C3=NNC4=CC=CC(=C43)C2=O
Outline: as §1

[9] = compound: C1CCN(C1)C(=O)NC2=CC=CC(=C2)NC3=NC=C(C(=N3)NCCC4=CN=CN4)Br
Outline: as §1

[10] = compound: C1CN(CCC1(CC2=CC=C(C=C2)Cl)N)C3=NC=NC4=C3C=CN4
Outline: as §1

[11] = compound: C1COCCN1CCN2C3=CC=CC=C3N=C2NC(=O)C4=CC(=CC=C4)[N+](=O)[O-] [IRAK-1-4 Inhibitor I]
Outline: as §1

[12] = compound: C=CC(=O)N1CCC[C@@H](n2nc(-c3ccc(Oc4ccccc4)cc3)c3c(N)ncnc32)C1 [ibrutinib]
Outline: as §1

[13] = compound: CC(=O)c1cnc2ccc(-c3cc(Cl)c(O)c(Cl)c3)nc2c1N[C@H]1CC[C@H](CN(C)C)CC1
Outline: as §1

[14] = compound: CC(C)(C)Cn1c(N)nc2ccc(-c3[nH]c(C(C)(C)C)nc3-c3ccc(F)cc3)nc21 [ralimetinib]
Outline: as §1

[15] = compound: CC(C)(O)CC(=O)NCCn1ccc2ncnc(Nc3ccc(Oc4cccc(C(F)(F)F)c4)c(Cl)c3)c21
Outline: as §1

[16] = compound: CC(C)C1=C2N=C(C=C(N2N=C1)NCC3=CC=CC=C3)NCCCCCCN
Outline: as §1

[17] = compound: CC(C)C[C@@H](C=O)NC(=O)[C@H](CC(C)C)NC(=O)[C@H](CC(C)C)NC(=O)OCc1ccccc1
Outline: as §1

[18] = compound: CC(C)N(C[C@H]1O[C@@H](n2cnc3c(N)ncnc32)[C@H](O)[C@@H]1O)[C@H]1C[C@@H](CCc2nc3cc(C(C)(C)C)ccc3[nH]2)C1 [pinometostat]
Outline: as §1

[19] = compound: CC1=C(C2=C(C=C1)C(=O)C3=CC=CC=C3N2CCCN)C
Outline: as §1

[20] = compound: CC1=C(C(CC(=O)N1)C2=CC=C(C=C2)C(F)(F)F)C(=O)NC3=C(C=C4C(=C3)C=NN4)F
Outline: as §1

Measured: log2 fold change

UTP3 (UniProt Q9NQZ2)
inactive: [1] -0.098 | [2] -0.076 | [3] -0.748 | [4] 0.063 | [5] -0.068 | [6] 0 | [7] -0.255 | [8] -0.004 | [9] 0.006 | [10] -0.203 | [11] -0.053 | [12] 0.072 | [13] 0.031 | [14] 0.021 | [15] 0.062 | [16] -0.062 | [17] 0.253 | [18] 0.159 | [19] -0.571

UXS1 isoform 2 (UniProt Q8NBZ7)
inactive: [1] -0.003 | [2] -0.1 | [3] 0.019 | [4] 0.008 | [5] -0.012 | [6] 0.007 | [7] -0.103 | [8] 0.021 | [9] 0.023 | [10] -0.007 | [11] -0.071 | [12] -0.026 | [13] 0.032 | [14] -0.001 | [15] -0.01 | [16] 0.064 | [17] 0.059 | [18] 0.054 | [20] -0.073 | [19] 0.04

UQCRC2 (UniProt P22695)
inactive: [1] 0 | [2] 0.001 | [3] 0.065 | [4] -0.024 | [5] 0.018 | [6] 0.027 | [7] 0.002 | [8] -0.003 | [9] 0.008 | [10] 0.03 | [11] 0.042 | [12] 0.001 | [13] -0.008 | [14] 0 | [15] -0.045 | [16] 0.004 | [17] -0.019 | [18] -0.034 | [20] -0.007 | [19] 0.028

VARS (UniProt P26640)
inactive: [1] -0.04 | [2] 0.052 | [3] -0.002 | [4] -0.003 | [5] 0.036 | [6] 0.005 | [7] 0.049 | [8] 0.014 | [9] 0.017 | [10] -0.049 | [11] -0.038 | [12] -0.01 | [13] 0.05 | [14] 0.056 | [15] -0.026 | [16] -0.078 | [17] 0.016 | [18] 0.032 | [20] 0.004 | [19] 0.044

UBXN1 (UniProt Q04323)
inactive: [1] 0.023 | [2] 0.033 | [3] 0.082 | [4] -0.026 | [5] 0.046 | [6] 0.05 | [7] -0.028 | [8] -0.001 | [9] -0.004 | [10] -0.009 | [11] 0.015 | [12] -0.028 | [13] -0.003 | [14] -0.036 | [15] -0.028 | [16] -0.047 | [17] 0.056 | [18] 0.003 | [20] 0.002 | [19] 0.046

UBL4A (UniProt P11441)
inactive: [1] -0.056 | [2] 0.03 | [3] 0.044 | [4] 0.038 | [5] 0.004 | [6] 0.053 | [7] -0.021 | [8] -0.012 | [9] -0.044 | [10] -0.035 | [11] -0.015 | [12] -0.037 | [13] 0.011 | [14] -0.001 | [15] -0.025 | [16] -0.072 | [17] 0.082 | [18] -0.005 | [20] -0.016 | [19] 0.03

UFSP2 (UniProt Q9NUQ7)
inactive: [1] 0.035 | [2] 0.103 | [3] -0.028 | [4] 0.005 | [5] 0.028 | [6] 0.004 | [7] -0.015 | [8] -0.008 | [9] 0.019 | [10] 0.009 | [11] 0.034 | [12] -0.021 | [13] -0.092 | [14] -0.018 | [15] -0.057 | [16] 0.046 | [17] 0.065 | [18] 0.037 | [20] -0.045 | [19] 0.041

UCKL1 (UniProt Q9NWZ5)
inactive: [1] 0.037 | [2] 0.051 | [3] -0.007 | [4] 0.027 | [5] 0.053 | [6] -0.001 | [7] 0.085 | [8] 0.006 | [9] -0.012 | [10] 0.002 | [11] -0.084 | [12] 0.019 | [13] 0.028 | [14] 0.064 | [15] -0.047 | [16] -0.059 | [17] -0.049 | [18] 0.006 | [20] -0.051 | [19] 0.102

Quoted from the listing (4 entries):
UQCRC2 (UniProt P22695)
inactive: [1] 0 | [2] 0.001 | [3] 0.065 | [4] -0.024 | [5] 0.018 | [6] 0.027 | [7] 0.002 | [8] -0.003 | [9] 0.008 | [10] 0.03 | [11] 0.042 | [12] 0.001 | [13] -0.008 | [14] 0 | [15] -0.045 | [16] 0.004 | [17] -0.019 | [18] -0.034 | [20] -0.007 | [19] 0.028

VARS (UniProt P26640)
inactive: [1] -0.04 | [2] 0.052 | [3] -0.002 | [4] -0.003 | [5] 0.036 | [6] 0.005 | [7] 0.049 | [8] 0.014 | [9] 0.017 | [10] -0.049 | [11] -0.038 | [12] -0.01 | [13] 0.05 | [14] 0.056 | [15] -0.026 | [16] -0.078 | [17] 0.016 | [18] 0.032 | [20] 0.004 | [19] 0.044

UBXN1 (UniProt Q04323)
inactive: [1] 0.023 | [2] 0.033 | [3] 0.082 | [4] -0.026 | [5] 0.046 | [6] 0.05 | [7] -0.028 | [8] -0.001 | [9] -0.004 | [10] -0.009 | [11] 0.015 | [12] -0.028 | [13] -0.003 | [14] -0.036 | [15] -0.028 | [16] -0.047 | [17] 0.056 | [18] 0.003 | [20] 0.002 | [19] 0.046

UBL4A (UniProt P11441)
inactive: [1] -0.056 | [2] 0.03 | [3] 0.044 | [4] 0.038 | [5] 0.004 | [6] 0.053 | [7] -0.021 | [8] -0.012 | [9] -0.044 | [10] -0.035 | [11] -0.015 | [12] -0.037 | [13] 0.011 | [14] -0.001 | [15] -0.025 | [16] -0.072 | [17] 0.082 | [18] -0.005 | [20] -0.016 | [19] 0.03

Remaining list, next part:

UQCRC1 (UniProt P31930)
inactive: [1] 0.008 | [2] -0.008 | [3] 0.058 | [4] -0.022 | [5] -0.003 | [6] 0.053 | [7] -0.031 | [8] -0.028 | [9] 0.01 | [10] 0.064 | [11] 0.082 | [12] -0.038 | [13] 0.021 | [14] -0.045 | [15] -0.072 | [16] 0.033 | [17] -0.017 | [18] -0.007 | [20] 0.02 | [19] 0.022

VBP1 (UniProt P61758)
inactive: [1] 0.001 | [2] -0.012 | [3] 0.025 | [4] -0.007 | [5] -0.051 | [6] -0.003 | [7] -0.048 | [8] -0.003 | [9] 0.029 | [10] 0.032 | [11] 0.055 | [12] -0.004 | [13] 0 | [14] -0.04 | [15] 0.004 | [16] 0.069 | [17] 0.016 | [18] -0.015 | [20] 0.01 | [19] -0.029

USP39 (UniProt Q53GS9)
inactive: [1] -0.019 | [2] -0.03 | [3] -0.105 | [4] -0.017 | [5] -0.014 | [6] -0.003 | [7] -0.05 | [8] 0.004 | [9] 0.007 | [10] -0.026 | [11] -0.015 | [12] -0.008 | [13] -0.061 | [14] 0.023 | [15] 0.046 | [16] 0.1 | [17] 0.04 | [18] 0.081 | [20] -0.011 | [19] 0.076

USP8 (UniProt P40818)
inactive: [1] 0.131 | [2] 0.088 | [3] -0.034 | [4] -0.042 | [5] 0.164 | [6] 0.027 | [7] -0.018 | [8] 0.023 | [9] -0.15 | [10] -0.025 | [11] 0.043 | [12] 0.05 | [13] -0.123 | [14] 0.058 | [15] -0.08 | [16] -0.064 | [17] 0.127 | [18] 0.153 | [20] -0.034 | [19] 0.064

UMPS (UniProt P11172)
inactive: [1] 0.044 | [2] 0 | [3] 0.068 | [4] 0.008 | [5] 0.032 | [6] 0.012 | [7] 0.046 | [8] -0.01 | [9] -0.011 | [10] 0.021 | [11] 0.004 | [12] 0.015 | [13] 0.007 | [14] -0.033 | [15] -0.069 | [16] 0.032 | [17] -0.033 | [18] -0.042 | [20] -0.008 | [19] 0.007

VAMP7 (UniProt P51809)
inactive: [1] -0.02 | [2] 0.003 | [3] 0.077 | [4] 0.005 | [5] 0.016 | [6] 0.007 | [7] 0.065 | [8] -0.001 | [9] 0.001 | [10] 0.03 | [11] 0.018 | [12] -0.048 | [13] -0.041 | [14] -0.022 | [15] -0.006 | [16] -0.169 | [17] -0.001 | [18] -0.027 | [19] 0.025

USP5 (UniProt P45974)
inactive: [1] 0.002 | [2] 0.035 | [3] 0.037 | [4] -0.008 | [5] 0.012 | [6] 0.011 | [7] 0.014 | [8] 0.016 | [9] 0.012 | [10] 0.012 | [11] 0.016 | [12] -0.018 | [13] -0.025 | [14] -0.053 | [15] 0.002 | [16] 0.008 | [17] -0.015 | [18] -0.016 | [20] -0.003 | [19] -0.069
